From patent US20240409643A1, “ANTI-NMDAR2B ANTIBODIES, ANTIBODY-DRUG CONJUGATES, AND CHIMERIC ANTIGEN RECEPTORS, AND COMPOSITIONS AND METHODS OF USE” (THE TRUSTEES OF DARTMOUTH COLLEGE, priority 2021, published 2024) come the findings set out here.

Amino acid sequences for entries named in this document (tags omitted). A change or cut given only in a name is not applied to a line headed by its entry.
UniProt Q13224: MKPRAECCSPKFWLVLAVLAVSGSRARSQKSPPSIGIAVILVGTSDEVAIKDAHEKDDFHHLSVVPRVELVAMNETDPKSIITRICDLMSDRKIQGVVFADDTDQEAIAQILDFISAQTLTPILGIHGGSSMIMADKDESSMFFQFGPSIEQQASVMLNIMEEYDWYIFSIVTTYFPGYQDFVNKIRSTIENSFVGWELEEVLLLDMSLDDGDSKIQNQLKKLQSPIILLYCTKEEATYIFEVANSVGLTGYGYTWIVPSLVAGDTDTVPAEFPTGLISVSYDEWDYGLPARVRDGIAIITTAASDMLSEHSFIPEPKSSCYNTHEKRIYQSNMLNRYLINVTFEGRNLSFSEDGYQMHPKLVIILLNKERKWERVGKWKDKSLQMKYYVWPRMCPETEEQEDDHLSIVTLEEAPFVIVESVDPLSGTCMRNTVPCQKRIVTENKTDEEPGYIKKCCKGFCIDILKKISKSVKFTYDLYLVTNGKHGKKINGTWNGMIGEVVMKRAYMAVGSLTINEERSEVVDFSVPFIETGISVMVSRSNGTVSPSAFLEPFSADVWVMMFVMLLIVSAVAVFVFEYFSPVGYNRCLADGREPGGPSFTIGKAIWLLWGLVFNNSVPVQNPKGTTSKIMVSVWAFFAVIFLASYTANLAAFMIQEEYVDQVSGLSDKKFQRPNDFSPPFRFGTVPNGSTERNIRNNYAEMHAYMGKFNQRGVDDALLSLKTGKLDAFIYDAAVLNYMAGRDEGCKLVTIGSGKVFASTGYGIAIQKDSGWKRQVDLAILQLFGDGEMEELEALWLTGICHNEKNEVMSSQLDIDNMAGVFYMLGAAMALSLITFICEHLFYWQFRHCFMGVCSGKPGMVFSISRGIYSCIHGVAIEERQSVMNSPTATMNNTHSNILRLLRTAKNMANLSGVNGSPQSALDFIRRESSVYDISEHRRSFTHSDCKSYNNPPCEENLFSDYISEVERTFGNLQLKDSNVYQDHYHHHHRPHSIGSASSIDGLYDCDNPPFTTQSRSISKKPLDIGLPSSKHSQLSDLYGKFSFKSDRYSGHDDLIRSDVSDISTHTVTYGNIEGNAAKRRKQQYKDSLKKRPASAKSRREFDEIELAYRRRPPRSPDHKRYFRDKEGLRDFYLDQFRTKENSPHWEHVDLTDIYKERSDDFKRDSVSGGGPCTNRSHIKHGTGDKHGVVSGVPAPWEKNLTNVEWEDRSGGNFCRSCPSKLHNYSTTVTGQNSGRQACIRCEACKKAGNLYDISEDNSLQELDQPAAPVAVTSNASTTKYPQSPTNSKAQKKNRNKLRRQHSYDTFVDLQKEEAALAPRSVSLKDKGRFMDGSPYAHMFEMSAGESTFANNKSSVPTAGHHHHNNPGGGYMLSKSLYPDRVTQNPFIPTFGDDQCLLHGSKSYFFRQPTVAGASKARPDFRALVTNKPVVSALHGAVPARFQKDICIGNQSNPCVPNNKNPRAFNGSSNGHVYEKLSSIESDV

Sequences and labels used below:
B1: Fab10 (Fab, V domains shown)
VH: EVQLVESGGGLVQPGGSLRLSCAASGFNLYSSYMHWVRQAPGKGLEWVASISSSYGYTYYADSVKGRFTISADTSKNTAYLQMNSLRAEDTAVYYCARTVRGSKKPYFSGWAMDYWGQGTLVTVSS
VL: DIQMTQSPSSLSASVGDRVTITCRASQSVSSAVAWYQQKPGKAPKLLIYSASSLYSGVPSRFSGSRSGTDFTLTISSLQPEDFATYYCQQGSYLITFGQGTKVEIK
notes: also called Ab10 (IgG form with the same VH and VL)
B2: Fab6 (Fab, V domains shown)
VH: B1 VH with L29I, M34I
VL: B1 VL with S92G, Y93S
notes: also called Ab6 (IgG form with the same VH and VL)
B3: Fab8 (Fab, V domains shown)
VH: B1 VH with L29I, S31Y
VL: B1 VL with G91A
notes: also called Ab8 (IgG form with the same VH and VL)
B4: Fab5 (Fab, V domains shown)
VH: B1 VH with S52Y, G56S, Y57S
VL: B1 VL with S92A, Y93G
notes: also called Ab5 (IgG form with the same VH and VL)
B5: Fab7 (Fab, V domains shown)
VH: B1 VH with L29F, Y30S, Y33S, M34I
VL: B1 VL with Y93H
notes: also called Ab7 (IgG form with the same VH and VL)
B6: Fab9 (Fab, V domains shown)
VH: EVQLVESGGGLVQPGGSLRLSCAASGFNLSYSSMHWVRQAPGKGLEWVASISPYSGSTYYADSVKGRFTISADTSKNTAYLQMNSLRAEDTAVYYCARYYWYYYYGFDYWGQGTLVTVSS
VL: DIQMTQSPSSLSASVGDRVTITCRASQSVSSAVAWYQQKPGKAPKLLIYSASSLYSGVPSRFSGSRSGTDFTLTISSLQPEDFATYYCQQYVGYGSPITFGQGTKVEIK
notes: also called Ab9 (IgG form with the same VH and VL)
B7: Fab4 (Fab, V domains shown)
VH: EVQLVESGGGLVQPGGSLRLSCAASGFNLYYYSIHWVRQAPGKGLEWVAYISSYYGYTYYADSVKGRFTISADTSKNTAYLQMNSLRAEDTAVYYCARYYPGGWHAFDYWGQGTLVTVSS
VL: B6 VL with V92Y, S96Y
notes: also called Ab4 (IgG form with the same VH and VL)

Positions count from the first letter of the chain named. No constants are given. Whether binding was seen depends on the method and setting. Some results given as binding are weak or reduced against the parent protein; the word gives no strength. Ends that are not written are not given here.

In one assay the target is Human NMDAR2B on NCI-H82 small-cell lung cancer cells (human) (UniProt Q13224). The assay is described as follows: flow cytometry, NCI-H82 cells.
For the molecule B1, the binding entry is “binds”.

Consider B2, for which the binding entry is listed as “binds”.

In the case of B3, the binding result was “binds”.

As to B4, the binding entry is “binds”.

On to B5, for which the binding entry is recorded as “binds”.

On to B6, for which the binding result is “binds”.

In the case of B7, the binding result is recorded as “binds”.

For a further assay the target is unchanged. The assay is described as follows: flow cytometry, NCI-H82 cells, Fab at 5 µg/mL. In general terms: In flow cytometry, cells or beads pass a laser one at a time.
As for B1, the binding result is “binds”.

As to B2, the binding result is recorded as “binds”.

B3: the binding result was “binds”.

In the case of B4, the binding entry is reported as “binds”.

As for B5, the binding entry is on record as “binds”.

As for B6, the binding result is “binds”.

Turning to B7, the binding result is on record as “binds”.

For the next assay the target is unchanged. As to the kind of experiment: flow cytometry on live and 4% paraformaldehyde-fixed NCI-H82 cells, Fab at 5 ug/mL, FITC anti-human IgG (Example 9).
As to B3, the binding result is recorded as “binds”.

For the molecule B6, the binding entry was “binds”.
